# Laboratory results from the supplement of paper PMC5836539.
# Sequences of proteins named here, by UniProt entry; tags and fusion partners are left off. A change or cut given only in a name is not applied to a line headed by its entry.
# UniProt Q3YEC7: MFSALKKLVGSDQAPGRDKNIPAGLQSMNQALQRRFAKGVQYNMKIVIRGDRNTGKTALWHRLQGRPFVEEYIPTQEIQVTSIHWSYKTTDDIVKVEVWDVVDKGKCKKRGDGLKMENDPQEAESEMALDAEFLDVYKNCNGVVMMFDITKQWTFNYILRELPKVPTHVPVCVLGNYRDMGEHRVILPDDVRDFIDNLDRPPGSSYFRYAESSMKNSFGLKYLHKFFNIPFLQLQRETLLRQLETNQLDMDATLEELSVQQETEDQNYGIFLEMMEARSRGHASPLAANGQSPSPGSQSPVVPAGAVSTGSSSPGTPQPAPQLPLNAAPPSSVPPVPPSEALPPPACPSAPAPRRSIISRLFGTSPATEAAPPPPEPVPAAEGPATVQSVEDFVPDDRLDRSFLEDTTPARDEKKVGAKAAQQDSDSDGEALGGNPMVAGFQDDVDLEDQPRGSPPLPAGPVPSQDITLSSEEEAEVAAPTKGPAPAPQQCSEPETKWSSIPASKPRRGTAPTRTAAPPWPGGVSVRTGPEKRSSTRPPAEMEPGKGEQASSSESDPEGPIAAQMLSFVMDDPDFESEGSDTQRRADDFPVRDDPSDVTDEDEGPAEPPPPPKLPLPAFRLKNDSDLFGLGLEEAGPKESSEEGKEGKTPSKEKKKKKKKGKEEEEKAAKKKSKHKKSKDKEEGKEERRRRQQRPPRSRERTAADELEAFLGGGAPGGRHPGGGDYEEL
# UniProt Q5T4S7, whole entry, looked up: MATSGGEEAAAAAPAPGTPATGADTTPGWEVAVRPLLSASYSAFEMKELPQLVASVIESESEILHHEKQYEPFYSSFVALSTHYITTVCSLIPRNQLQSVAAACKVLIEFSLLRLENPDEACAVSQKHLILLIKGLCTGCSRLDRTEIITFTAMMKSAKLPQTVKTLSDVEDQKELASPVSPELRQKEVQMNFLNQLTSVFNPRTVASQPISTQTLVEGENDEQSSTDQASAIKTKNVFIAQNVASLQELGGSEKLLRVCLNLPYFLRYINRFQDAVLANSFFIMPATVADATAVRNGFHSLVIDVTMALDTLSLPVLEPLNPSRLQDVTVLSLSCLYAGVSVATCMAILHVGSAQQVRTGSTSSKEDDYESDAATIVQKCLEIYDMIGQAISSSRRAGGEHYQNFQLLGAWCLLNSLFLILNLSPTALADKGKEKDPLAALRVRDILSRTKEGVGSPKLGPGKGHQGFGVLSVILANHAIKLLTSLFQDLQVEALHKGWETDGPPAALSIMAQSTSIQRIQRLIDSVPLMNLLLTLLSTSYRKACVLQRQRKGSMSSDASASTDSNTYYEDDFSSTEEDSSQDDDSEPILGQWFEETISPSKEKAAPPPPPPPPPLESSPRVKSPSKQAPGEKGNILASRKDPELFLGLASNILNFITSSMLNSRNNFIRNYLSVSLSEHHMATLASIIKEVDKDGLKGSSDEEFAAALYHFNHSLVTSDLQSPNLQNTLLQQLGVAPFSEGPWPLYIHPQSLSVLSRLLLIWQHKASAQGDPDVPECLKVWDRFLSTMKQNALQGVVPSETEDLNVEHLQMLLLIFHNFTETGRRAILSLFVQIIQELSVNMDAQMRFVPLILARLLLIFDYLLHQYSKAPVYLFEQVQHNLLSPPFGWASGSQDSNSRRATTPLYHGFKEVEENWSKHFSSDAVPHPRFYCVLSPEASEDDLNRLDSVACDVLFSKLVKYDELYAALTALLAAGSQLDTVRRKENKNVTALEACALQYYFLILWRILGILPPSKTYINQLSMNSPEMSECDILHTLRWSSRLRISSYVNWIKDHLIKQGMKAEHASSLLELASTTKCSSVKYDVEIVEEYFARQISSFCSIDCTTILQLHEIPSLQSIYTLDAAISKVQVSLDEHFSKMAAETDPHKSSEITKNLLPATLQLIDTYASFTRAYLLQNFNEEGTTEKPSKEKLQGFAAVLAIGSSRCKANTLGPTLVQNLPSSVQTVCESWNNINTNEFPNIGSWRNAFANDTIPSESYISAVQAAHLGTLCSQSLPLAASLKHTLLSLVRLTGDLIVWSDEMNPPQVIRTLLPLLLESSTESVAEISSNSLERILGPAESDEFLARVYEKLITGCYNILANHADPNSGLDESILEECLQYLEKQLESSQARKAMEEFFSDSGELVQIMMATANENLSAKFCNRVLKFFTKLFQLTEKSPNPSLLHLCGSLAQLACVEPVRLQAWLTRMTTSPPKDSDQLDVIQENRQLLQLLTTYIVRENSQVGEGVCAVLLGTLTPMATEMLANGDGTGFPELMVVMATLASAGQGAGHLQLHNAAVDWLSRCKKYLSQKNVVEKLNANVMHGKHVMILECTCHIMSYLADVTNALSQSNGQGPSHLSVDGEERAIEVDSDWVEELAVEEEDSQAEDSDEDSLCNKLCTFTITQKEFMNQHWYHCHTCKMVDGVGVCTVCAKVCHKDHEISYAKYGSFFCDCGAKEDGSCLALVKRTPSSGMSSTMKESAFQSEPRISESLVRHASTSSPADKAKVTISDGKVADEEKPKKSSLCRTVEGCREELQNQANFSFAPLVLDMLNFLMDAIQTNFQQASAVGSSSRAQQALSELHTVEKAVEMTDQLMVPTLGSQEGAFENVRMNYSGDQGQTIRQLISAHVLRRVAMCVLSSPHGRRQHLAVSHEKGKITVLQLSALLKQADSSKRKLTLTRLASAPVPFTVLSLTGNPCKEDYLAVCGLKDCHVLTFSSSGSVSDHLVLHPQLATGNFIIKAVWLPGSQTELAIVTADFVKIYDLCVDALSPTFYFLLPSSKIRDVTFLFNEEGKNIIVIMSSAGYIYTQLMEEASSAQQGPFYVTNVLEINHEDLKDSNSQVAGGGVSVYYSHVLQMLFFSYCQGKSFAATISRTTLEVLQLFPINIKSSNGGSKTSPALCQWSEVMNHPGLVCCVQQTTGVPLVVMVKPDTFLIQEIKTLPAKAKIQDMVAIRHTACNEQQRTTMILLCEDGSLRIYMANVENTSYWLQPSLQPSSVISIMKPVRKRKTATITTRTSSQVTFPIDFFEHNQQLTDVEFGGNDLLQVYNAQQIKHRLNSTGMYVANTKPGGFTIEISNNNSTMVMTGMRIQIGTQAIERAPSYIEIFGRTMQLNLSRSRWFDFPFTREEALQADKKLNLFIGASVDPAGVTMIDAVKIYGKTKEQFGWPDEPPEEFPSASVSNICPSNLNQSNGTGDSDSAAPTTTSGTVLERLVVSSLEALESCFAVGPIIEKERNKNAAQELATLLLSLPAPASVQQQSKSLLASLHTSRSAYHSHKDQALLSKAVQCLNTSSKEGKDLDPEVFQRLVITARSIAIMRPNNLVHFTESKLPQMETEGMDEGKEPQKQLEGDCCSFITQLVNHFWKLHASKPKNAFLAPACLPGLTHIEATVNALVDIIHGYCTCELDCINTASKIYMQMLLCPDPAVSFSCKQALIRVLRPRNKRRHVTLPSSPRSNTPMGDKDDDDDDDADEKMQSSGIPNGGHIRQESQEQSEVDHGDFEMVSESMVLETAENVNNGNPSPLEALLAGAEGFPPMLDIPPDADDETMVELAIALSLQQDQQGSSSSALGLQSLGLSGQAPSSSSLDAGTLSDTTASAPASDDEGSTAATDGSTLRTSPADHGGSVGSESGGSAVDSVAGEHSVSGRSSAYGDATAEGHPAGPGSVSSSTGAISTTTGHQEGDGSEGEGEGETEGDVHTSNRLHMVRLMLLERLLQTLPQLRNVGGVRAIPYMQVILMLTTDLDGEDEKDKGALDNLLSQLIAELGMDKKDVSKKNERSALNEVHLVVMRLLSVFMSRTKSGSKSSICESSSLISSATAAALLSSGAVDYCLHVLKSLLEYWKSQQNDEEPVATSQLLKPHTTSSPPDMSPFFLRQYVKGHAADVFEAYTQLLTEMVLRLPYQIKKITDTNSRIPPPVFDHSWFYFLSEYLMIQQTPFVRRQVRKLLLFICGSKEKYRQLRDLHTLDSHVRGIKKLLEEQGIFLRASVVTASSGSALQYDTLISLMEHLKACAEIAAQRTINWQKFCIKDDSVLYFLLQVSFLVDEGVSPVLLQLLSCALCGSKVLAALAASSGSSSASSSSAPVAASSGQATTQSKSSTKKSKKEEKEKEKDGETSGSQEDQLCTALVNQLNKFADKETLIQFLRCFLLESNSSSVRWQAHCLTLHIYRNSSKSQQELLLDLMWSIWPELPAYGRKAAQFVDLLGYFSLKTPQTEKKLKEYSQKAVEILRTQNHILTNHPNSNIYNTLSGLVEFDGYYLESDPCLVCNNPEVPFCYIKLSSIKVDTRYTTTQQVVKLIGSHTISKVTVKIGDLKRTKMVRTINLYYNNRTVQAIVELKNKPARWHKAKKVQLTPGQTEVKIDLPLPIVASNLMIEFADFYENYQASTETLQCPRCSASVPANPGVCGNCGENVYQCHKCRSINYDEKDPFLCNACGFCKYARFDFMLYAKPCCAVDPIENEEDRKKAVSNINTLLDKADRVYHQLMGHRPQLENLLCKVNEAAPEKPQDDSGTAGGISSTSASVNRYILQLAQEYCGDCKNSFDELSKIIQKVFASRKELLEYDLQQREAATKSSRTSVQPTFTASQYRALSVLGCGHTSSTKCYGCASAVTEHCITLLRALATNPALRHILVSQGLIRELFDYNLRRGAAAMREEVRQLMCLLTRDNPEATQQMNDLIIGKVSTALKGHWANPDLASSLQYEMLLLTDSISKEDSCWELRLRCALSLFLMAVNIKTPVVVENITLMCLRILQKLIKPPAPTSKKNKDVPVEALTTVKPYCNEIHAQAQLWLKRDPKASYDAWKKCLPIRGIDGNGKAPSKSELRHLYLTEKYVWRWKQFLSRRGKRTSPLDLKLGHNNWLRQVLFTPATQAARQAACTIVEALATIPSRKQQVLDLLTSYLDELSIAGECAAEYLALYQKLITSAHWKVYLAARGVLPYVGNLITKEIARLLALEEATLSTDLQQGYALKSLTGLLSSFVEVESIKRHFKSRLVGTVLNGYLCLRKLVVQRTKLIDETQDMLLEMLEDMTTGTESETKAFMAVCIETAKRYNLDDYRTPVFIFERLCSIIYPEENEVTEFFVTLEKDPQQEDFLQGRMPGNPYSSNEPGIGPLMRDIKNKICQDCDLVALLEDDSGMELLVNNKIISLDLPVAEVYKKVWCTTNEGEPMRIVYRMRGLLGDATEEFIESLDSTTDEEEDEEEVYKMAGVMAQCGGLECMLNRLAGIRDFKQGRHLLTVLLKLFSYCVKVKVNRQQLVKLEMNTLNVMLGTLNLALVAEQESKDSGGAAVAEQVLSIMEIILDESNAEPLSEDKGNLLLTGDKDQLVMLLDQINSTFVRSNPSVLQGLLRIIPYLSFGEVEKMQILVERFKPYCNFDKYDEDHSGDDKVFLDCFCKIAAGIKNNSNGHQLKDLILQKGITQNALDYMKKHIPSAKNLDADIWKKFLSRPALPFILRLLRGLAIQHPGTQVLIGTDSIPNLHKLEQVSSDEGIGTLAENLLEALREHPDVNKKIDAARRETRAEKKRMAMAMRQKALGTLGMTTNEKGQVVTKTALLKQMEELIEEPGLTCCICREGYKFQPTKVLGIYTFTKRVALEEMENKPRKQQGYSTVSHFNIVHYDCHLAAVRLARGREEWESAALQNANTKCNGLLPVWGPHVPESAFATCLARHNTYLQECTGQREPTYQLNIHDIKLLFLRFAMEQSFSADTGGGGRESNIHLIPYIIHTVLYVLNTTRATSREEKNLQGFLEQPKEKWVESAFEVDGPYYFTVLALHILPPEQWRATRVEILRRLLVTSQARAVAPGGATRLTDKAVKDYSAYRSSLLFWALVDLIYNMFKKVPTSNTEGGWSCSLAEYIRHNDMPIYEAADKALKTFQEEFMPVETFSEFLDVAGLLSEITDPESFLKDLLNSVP
# ± gives the standard deviation of the averaged measurements. Most values lie within the scatter of the assay; repeated measurements hardly agree.
# Compound: CC[C@@H](C)Nc1cc(C(=O)N[C@H]2C[C@H]3CC[C@@H](C2)N3c2ccc(C(=O)C3CC3)cn2)c(C)cc1C(N)=O [XL888]
# Test: phosphopeptide melting temperature shift (XL888 minus DMSO); higher = stabilised by drug treatment
# Conditions: 100 µM; treatment time 2 h; layout: intact cells; SK-Mel 28
# Description: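 Phospho-TPP in intact SK-Mel 28 cells treated with 100 uM XL888 or DMSO for 2 h, heated at 10 temperatures (37-67 C) for 3 min, soluble fraction TMT10plex-labelled and TiO2 phospho-enriched. Melting curves were fitted per phosphopeptide; the value is the melting point difference (drug minus vehicle) in each of two biological replicates.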
row,Target,phosphopeptide melting temperature shift [°C]
1,UniProt P85037-2_phosphosite_60 (phosphosite position: 60),0.841
2,UniProt P85037-2_phosphosite_253 (phosphosite position: 253),0.602
3,UniProt P85037-2_phosphosite_257 (phosphosite position: 257),1.14
4,UniProt P85037-2_phosphosite_273 (phosphosite position: 273),1.06 ± 0.68
5,UniProt P85037-2_phosphosite_278 (phosphosite position: 278),1.27 ± 0.36
6,UniProt P98174_phosphosite_48 (phosphosite position: 48),1.13
7,UniProt P98175-2_phosphosite_722 (phosphosite position: 722),1.29 ± 0.98
8,UniProt Q0GE19-3_phosphosite_266 (phosphosite position: 266),0.632 ± 2.1
9,UniProt Q0GE19-3_phosphosite_268 (phosphosite position: 268),0.632 ± 2.1
10,UniProt Q0JRZ9-3_phosphosite_370 (phosphosite position: 370),1.09
11,UniProt Q0JRZ9-3_phosphosite_455 (phosphosite position: 455),2.01
12,UniProt Q0JRZ9-3_phosphosite_463 (phosphosite position: 463),3.05
13,UniProt Q2M2I8-2_phosphosite_21 (phosphosite position: 21),0.445 ± 1.2
14,UniProt Q2PPJ7-3_phosphosite_820 (phosphosite position: 820),0.205
15,UniProt Q2PPJ7-3_phosphosite_821 (phosphosite position: 821),0.205
16,UniProt Q3KQU3-4_phosphosite_116 (phosphosite position: 116),1.41
17,UniProt Q3V6T2-5_phosphosite_1674 (phosphosite position: 1674),1.14
18,UniProt Q3YEC7_phosphosite_596 (phosphosite position: 596),0.21 ± 0.99
19,UniProt Q3YEC7_phosphosite_599 (phosphosite position: 599),1.74 ± 1.8

row,Target,phosphopeptide melting temperature shift [°C]
1,UniProt Q3YEC7_phosphosite_640 (phosphosite position: 640),0.0774 ± 1.3
2,UniProt Q3YEC7_phosphosite_641 (phosphosite position: 641),0.122 ± 0.35
3,UniProt Q5H9R7-2_phosphosite_523 (phosphosite position: 523),0.71 ± 1.6
4,UniProt Q5H9R7-2_phosphosite_524 (phosphosite position: 524),0.506 ± 1.9
5,UniProt Q5H9R7-2_phosphosite_525 (phosphosite position: 525),0.71 ± 1.6
6,UniProt Q5H9R7-2_phosphosite_611 (phosphosite position: 611),1.95 ± 0.09
7,UniProt Q5HYJ3-3_phosphosite_193 (phosphosite position: 193),-0.854 ± 0.3
8,UniProt Q5JSH3-2_phosphosite_50 (phosphosite position: 50),2.05 ± 0.51
9,UniProt Q5JSH3-2_phosphosite_162 (phosphosite position: 162),0.811 ± 1.1
10,UniProt Q5SSJ5-2_phosphosite_117 (phosphosite position: 117),-0.623
11,UniProt Q5SYE7-2_phosphosite_1384 (phosphosite position: 1384),4.64
12,UniProt Q5T0N5-3_phosphosite_430 (phosphosite position: 430),-0.663
13,UniProt Q5T0N5-3_phosphosite_443 (phosphosite position: 443),0.767
14,UniProt Q5T1M5-2_phosphosite_969 (phosphosite position: 969),1.17
15,UniProt Q5T1M5-2_phosphosite_1152 (phosphosite position: 1152),0.118
16,UniProt Q5T1M5-2_phosphosite_1154 (phosphosite position: 1154),1.47
17,UniProt Q5T1V6-2_phosphosite_76 (phosphosite position: 76),1.25
18,UniProt Q5T4S7-3_phosphosite_1761 (phosphosite position: 1761),1.11 ± 0.23
19,UniProt Q5T4S7-3_phosphosite_1763 (phosphosite position: 1763),1.87 ± 1.6

# Some of the entries above, reformatted.
row	Target	phosphopeptide melting temperature shift [°C]
3	UniProt Q5H9R7-2_phosphosite_523 (phosphosite position: 523)	0.71 ± 1.6
4	UniProt Q5H9R7-2_phosphosite_524 (phosphosite position: 524)	0.506 ± 1.9
5	UniProt Q5H9R7-2_phosphosite_525 (phosphosite position: 525)	0.71 ± 1.6
6	UniProt Q5H9R7-2_phosphosite_611 (phosphosite position: 611)	1.95 ± 0.09
8	UniProt Q5JSH3-2_phosphosite_50 (phosphosite position: 50)	2.05 ± 0.51
11	UniProt Q5SYE7-2_phosphosite_1384 (phosphosite position: 1384)	4.64
12	UniProt Q5T0N5-3_phosphosite_430 (phosphosite position: 430)	-0.663
15	UniProt Q5T1M5-2_phosphosite_1152 (phosphosite position: 1152)	0.118
17	UniProt Q5T1V6-2_phosphosite_76 (phosphosite position: 76)	1.25
18	UniProt Q5T4S7-3_phosphosite_1761 (phosphosite position: 1761)	1.11 ± 0.23

# Further results.

row,Target,phosphopeptide melting temperature shift [°C]
1,UniProt Q5T4S7-3_phosphosite_2729 (phosphosite position: 2729),0.521
2,UniProt Q5T4S7-3_phosphosite_2733 (phosphosite position: 2733),1.07
3,UniProt Q5T8I3-2_phosphosite_193 (phosphosite position: 193),-1.39 ± 2
4,UniProt Q5T8I3-2_phosphosite_320 (phosphosite position: 320),1.61
5,UniProt Q5T8P6-3_phosphosite_127 (phosphosite position: 127),-0.113
6,UniProt Q5T200-2_phosphosite_198 (phosphosite position: 198),0.149 ± 0.28
7,UniProt Q5T200-2_phosphosite_325 (phosphosite position: 325),1.99
8,UniProt Q5T200-2_phosphosite_877 (phosphosite position: 877),-0.0836
9,UniProt Q5T200-2_phosphosite_1208 (phosphosite position: 1208),2.14 ± 1.3
10,UniProt Q5TAQ9-2_phosphosite_99 (phosphosite position: 99),0.866 ± 1.4
11,UniProt Q5TDH0-2_phosphosite_121 (phosphosite position: 121),4.01 ± 1
12,UniProt Q5THJ4-2_phosphosite_1038 (phosphosite position: 1038),1.92 ± 2.2
13,UniProt Q5THJ4-2_phosphosite_1138 (phosphosite position: 1138),1.24
14,UniProt Q5THJ4-2_phosphosite_1709 (phosphosite position: 1709),1.11
15,UniProt Q5VSL9_phosphosite_335 (phosphosite position: 335),0.412 ± 0.3
16,UniProt Q5VT52-2_phosphosite_556 (phosphosite position: 556),1.58
17,UniProt Q5VTB9-3_phosphosite_177 (phosphosite position: 177),0.302 ± 0.37
18,UniProt Q5VZ89-2_phosphosite_208 (phosphosite position: 208),1.99 ± 2
19,UniProt Q5VZ89-2_phosphosite_213 (phosphosite position: 213),1.99 ± 2
